Measurements published in patent US8329392B2, “Determination of testosterone by mass spectrometry” (Quest Diagnostics Investments Incorporated, priority 2003, dated 2012).

Test: Assay specificity: interference of other steroids in the HTLC/MS/MS testosterone assay
Settings: Dose = 10 μg/dL

Structure (SMILES)	% Interference	Observed (apparent testosterone observed)
C[C@]12CC[C@@H](O)C[C@@H]1CC[C@@H]1[C@@H]2CC[C@]2(C)C(=O)CC[C@@H]12 [ANDRO]	0.05%	–
C[C@]12CC[C@@H]3c4ccc(O)cc4CC[C@H]3[C@@H]1C[C@@H](O)[C@@H]2O [ESTRIOL]	0.05%	–
C[C@]12CC[C@@H](O)C[C@H]1CC[C@@H]1[C@@H]2CC[C@]2(C)[C@@H](C(=O)CO)CC[C@@H]12 [THDOC]	0.05%	–
C[C@H](O)[C@@]1(O)CC[C@H]2[C@@H]3CC[C@@H]4C[C@H](O)CC[C@]4(C)[C@H]3CC[C@@]21C [PT]	0.05%	–
CC12CC(=O)C3C(CCC4CC(O)CCC43C)C1CCC2C(=O)CO (stereo not drawn) [5α-THA]	0.05%	–
C[C@]12CC[C@@H](O)C[C@H]1CC[C@@H]1[C@@H]2C(=O)C[C@@]2(C)[C@H]1CC[C@]2(O)C(=O)CO [THE]	0.05%	–
C[C@]12CC[C@@H](O)C[C@H]1CC[C@@H]1[C@@H]2[C@@H](O)C[C@@]2(C)[C@H]1CC[C@]2(O)[C@H](O)CO [B-CORTOL]	0.05%	–
C[C@H](O)[C@@]1(O)CC[C@H]2[C@@H]3CC[C@@H]4C[C@H](O)CC[C@]4(C)[C@H]3C(=O)C[C@@]21C [PT-ONE]	0.5%	50.0 ng/dL
C[C@]12CCC(=O)C=C1CC[C@@H]1[C@@H]2[C@@H](O)C[C@@]2(C)[C@H]1CC[C@]2(O)C(=O)CO [CORTISOL]	0.05%	–
C[C@]12CC[C@@H](O)C[C@@H]1CC[C@@H]1[C@@H]2[C@@H](O)C[C@@]2(C)[C@H]1CC[C@]2(O)C(=O)CO [5α-THF]	0.05%	–
C[C@H](O)[C@H]1CC[C@H]2[C@@H]3CC[C@@H]4C[C@H](O)CC[C@]4(C)[C@H]3CC[C@]12C [PD]	0.05%	–
C[C@]12CCC(=O)C=C1CC[C@@H]1[C@@H]2C(=O)C[C@@]2(C)[C@H]1CC[C@]2(O)[C@H](O)CO [20β-DHE]	0.05%	–
C[C@]12CCC(=O)C=C1CC[C@@H]1[C@@H]2CC[C@]2(C)C(=O)CC[C@@H]12 [AD]	0.05%	–
C[C@]12CC[C@@H](O)C[C@H]1CC[C@@H]1[C@@H]2CC[C@@]2(C)[C@H]1CC[C@]2(O)C(=O)CO [THS]	0.05%	–
C[C@]12CCC(=O)C=C1CC[C@@H]1[C@@H]2[C@@H](O)C[C@@]2(C)[C@H]1CC[C@]2(O)[C@H](O)CO [20β-DHF]	0.05%	–
C[C@]12CC[C@@H](O)C[C@H]1CC[C@@H]1[C@@H]2[C@@H](O)C[C@]2(C)[C@@H](C(=O)CO)CC[C@@H]12 [THB]	0.05%	–
C[C@]12CC[C@@H](O)C[C@H]1CC[C@@H]1[C@@H]2CC[C@]2(C)C(=O)CC[C@@H]12 [ETIO]	0.05%	–
CC(=O)[C@@]1(O)CC[C@H]2[C@@H]3CCC4=CC(=O)CC[C@]4(C)[C@H]3CC[C@@]21C [17-HP]	0.05%	–
C[C@]12CCC(=O)C=C1CC[C@@H]1[C@@H]2[C@@H](O)C[C@@]2(C)[C@H]1CC[C@]2(O)[C@@H](O)CO [20α-DHF]	0.05%	–
C[C@]12CC[C@@H](O)C[C@@H]1CC[C@@H]1[C@@H]2[C@@H](O)C[C@]2(C)[C@@H](C(=O)CO)CC[C@@H]12 [5α-THB]	0.05%	–
C[C@]12CC[C@@H](O)C[C@H]1CC[C@H]1[C@@H]3CC[C@H](C(=O)CO)[C@@]3(C)CC(=O)[C@@H]12 [THA]	0.05%	–
C[C@]12CC[C@@H](O)C[C@H]1CC[C@@H]1[C@@H]2[C@@H](O)C[C@@]2(C)[C@H]1CC[C@]2(O)C(=O)CO [THF]	0.05%	–
C[C@]12CC[C@@H](O)C[C@H]1CC[C@@H]1[C@@H]2[C@@H](O)C[C@@]2(C)[C@H]1CC[C@]2(O)[C@@H](O)CO [α-CORTOL]	0.05%	–
C[C@]12CC[C@@H](O)C[C@H]1CC[C@@H]1[C@@H]2C(=O)C[C@@]2(C)[C@H]1CC[C@]2(O)[C@@H](O)CO [A-CORTOLONE]	0.05%	–
C[C@]12CC[C@H](O)CC1=CC[C@@H]1[C@@H]2CC[C@]2(C)C(=O)CC[C@@H]12 [DHA]	0.05%	–
